PubChem BioAssay AID1159578 – Peter MacCallum Cancer Centre – 2015

- Test: 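Genome-wide hunt for genes controlling movement of lymphatic endothelial cells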 (primary screen)
- Cell system: human lymphatic endothelial cells
- Reagents: siRNA pool against human genes, 40 nM
- Duration: 48 h after transfection
- Read-out: 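Cells stained with dye and imaged after a scratch; covered wound area and nuclei counted, duplicates averaged, migration set against mock wells and turned into a robust z-score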
- Direction: migration robust z-score: higher = faster migration into the scratch; migration relative to mock: higher = more scratch area covered than mock; nuclei per well: higher = more cells in the well
- Active means: 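Migration changed when robust z exceeds 2 or falls below -2 and mean nuclei number is at least 3300; otherwise not called changed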
- Calls: active = migration changed; inactive = no migration change, or too few cells
Shown is an unselected part of about 18,000 reagents. About 1,030 of them (5.7%) were called active. 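Inactive calls also include pools with fewer than 3300 nuclei, whose migration was not assessed.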 Raw values vary from plate to plate and are shown uncorrected.

gene,migration robust z-score,migration class with cell-count check,migration relative to mock,"nuclei per well, duplicate mean",activity call
TMEM8B,-0.25,migration z between -2 and 2; enough cells,0.82,4966,inactive
PPIP5K1,0.42,migration z between -2 and 2; enough cells,0.88,6799,inactive
PLCZ1,0.34,migration z between -2 and 2; enough cells,0.87,6334,inactive
HILPDA,-0.06,migration z between -2 and 2; enough cells,0.88,6054,inactive
DHX29,-0.42,migration z between -2 and 2; enough cells,0.72,5081,inactive
PCDHA3,0.68,migration z between -2 and 2; enough cells,1.06,6396,inactive
VCY1B,-1.51,migration z between -2 and 2; enough cells,0.5,3891,inactive
ANKRD13C-DT,-0.66,under 3300 nuclei; migration not judged,0.72,3256,inactive
FANCA,-0.21,migration z between -2 and 2; enough cells,0.76,5274,inactive
FOXB2,-1.25,migration z between -2 and 2; enough cells,0.56,6725,inactive
PLS1,-0.89,migration z between -2 and 2; enough cells,0.66,5684,inactive
SLC25A34,-2.38,migration z below -2; enough cells,0.27,4254,active
ZRANB2,1.46,migration z between -2 and 2; enough cells,1.26,7582,inactive
ADAT3,0.43,migration z between -2 and 2; enough cells,1,5740,inactive
CDC42SE2,0.26,migration z between -2 and 2; enough cells,0.86,6370,inactive
ZNF671,-0.44,migration z between -2 and 2; enough cells,0.78,5766,inactive
HRH2,-0.9,migration z between -2 and 2; enough cells,0.63,4944,inactive
CNFN,-2.09,migration z below -2; enough cells,0.34,5214,active
ZNF530,-1.21,migration z between -2 and 2; enough cells,0.57,6096,inactive
AKR1D1,-0.05,migration z between -2 and 2; enough cells,0.8,5166,inactive
ZFY,-0.3,migration z between -2 and 2; enough cells,0.8,5198,inactive

Next part; the last 3 above are carried over.
gene,migration robust z-score,migration class with cell-count check,migration relative to mock,"nuclei per well, duplicate mean",activity call
ZNF530,-1.21,migration z between -2 and 2; enough cells,0.57,6096,inactive
AKR1D1,-0.05,migration z between -2 and 2; enough cells,0.8,5166,inactive
ZFY,-0.3,migration z between -2 and 2; enough cells,0.8,5198,inactive
LIPM,0.57,migration z between -2 and 2; enough cells,0.92,6114,inactive
TBX19,1.02,migration z between -2 and 2; enough cells,1,6100,inactive
SLX1A,0.71,migration z between -2 and 2; enough cells,1.07,6178,inactive
PRR15,0.02,migration z between -2 and 2; enough cells,0.89,6048,inactive
DDX6,-0.44,migration z between -2 and 2; enough cells,0.72,5274,inactive
CNOT10,2.17,migration z above 2; enough cells,1.45,6592,active
DHX33,-1.01,migration z between -2 and 2; enough cells,0.61,5538,inactive
TBX6,-1.06,migration z between -2 and 2; enough cells,0.6,4482,inactive
LST1,0.73,migration z between -2 and 2; enough cells,1.08,4984,inactive
CLCN6,-0.16,migration z between -2 and 2; enough cells,0.78,5066,inactive
SCUBE1,1.29,migration z between -2 and 2; enough cells,1.22,5136,inactive
CTTNBP2,-1.15,migration z between -2 and 2; enough cells,0.58,4306,inactive
PLPPR1,-0.6,migration z between -2 and 2; enough cells,0.73,5216,inactive
DEFB128,0.22,migration z between -2 and 2; enough cells,0.94,5762,inactive
CNMD,-1.27,migration z between -2 and 2; enough cells,0.55,6108,inactive
UBA1,-0.1,migration z between -2 and 2; enough cells,0.78,5002,inactive
RICTOR,0.78,migration z between -2 and 2; enough cells,1.09,6139,inactive
FUNDC2,-0.58,migration z between -2 and 2; enough cells,0.74,5766,inactive
